Results from patent US20070253950A1.
No constants are given. Whether binding was seen depends on the method and setting. Some binding calls cover weakened binding; strength is not graded here.

The chains behind the UniProt entries cited, without tags or fusion partners. Where a name states a change or a piece, a line headed by the entry shows the natural chain unless it says otherwise.
UniProt Q62151: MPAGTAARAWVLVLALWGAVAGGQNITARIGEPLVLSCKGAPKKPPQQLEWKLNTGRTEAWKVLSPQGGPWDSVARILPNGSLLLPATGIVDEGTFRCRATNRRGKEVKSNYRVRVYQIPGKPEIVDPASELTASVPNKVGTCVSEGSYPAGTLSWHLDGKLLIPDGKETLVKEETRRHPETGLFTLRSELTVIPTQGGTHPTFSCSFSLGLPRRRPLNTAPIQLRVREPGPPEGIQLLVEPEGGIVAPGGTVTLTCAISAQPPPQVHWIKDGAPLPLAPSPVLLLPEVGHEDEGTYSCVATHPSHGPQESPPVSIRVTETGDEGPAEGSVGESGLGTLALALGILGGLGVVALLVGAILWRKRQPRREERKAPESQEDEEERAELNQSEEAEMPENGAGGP

Columns and labels:
murine RAGE-Fc (murine) [1] = biological target: murine RAGE-Fc (murine) (UniProt Q62151); assay: ELISA, antigen coated
murine RAGE-Fc (murine) [2] = biological target: murine RAGE-Fc (murine) (UniProt Q62151); assay: BIACORE direct binding, RAGE-Fc on CM5 chip, antibody 50 and 100 nM

B1: XT-M4 (antibody, V domains shown)
VH: EVQLVESGGGLVQPGRSLKLSCVVSGFTFNNYWMTWIRQTPGKGLEWVASINNSGDNTYYPDSVKDRFTISRDNAKSTLYLQMNSLRSEDTATYYCTRGGDITTGFDYWGQGVMVTVSS
VL: DIQMTQSPSSMSVSLGDTITITCRASQDVGIYVNWFQQKPGKSPRRMIYRATNLADGVPSRFSGSRSGSIYSLTISSLESEDVADYHCLEFDEHPLTFGSGTKVEIK
With B1 the binding (murine RAGE-Fc (murine) [1]) was “binds” and the binding (murine RAGE-Fc (murine) [2]) was “binds”.
